# Reference: PMC10838158
# These are yes or no findings as the source states them, for the method shown. Binding seen in cells or lysates may run through a third protein. Here binding means that the protein was enriched with, or labelled near, the bait; the list need not be complete.
# B1: AtERdj2B (endogenous in Arabidopsis PECP) (protein, UniProt F4JIN3 1-661)
# chain: MAESEENSVLFPIFILTMMAIPLVPYTFVKLSRAFSKKQRSIHCQCLECDRSGKYKRSISQSISSFTSCSNLTVVLLWIVMIFLIYHTKNMSRESQLFEPFGILGLEPGASDSEIKKAYRRLSIQYHPDKNPDPEANKYFVESIAKAYQALTDPLSRENFEKYGHPDGRQGYTMGIALPQFILNMNGESGGILLLCTVGLCILLPLVIASIYLWRSSKYTGNHVKLQTRQAYFELLQPSLTPSKVMDIFIRAAEYAEISVRKSDDESLQKLFMSVKSELNLDPKKLKQEEAKFWKKHPATIKTELLIQKQLTRESSVLSPTLQRDFRHVLEFAPRLLEDLIKMAVIPRNEQGRGWLRPALGVMELSQCIVQAVPLSARKSSSEDIAPFLQLPHFNESIAKSIALQVKSFQKFQELSLAERSKLLREVVSLSETDVQDIEKVLEMIPSLKINVTCKTEGEEGIQEGDIMTVQAWITLKRPNGLIGAIPHSPYFPFHKEENFWVLLADSNHVWFFQKVKFMDEAGAIAAASNTITETMEPLGASVKETNDAVKEAVEKVKSGSRLVMGRLLAPGEGTYNLTCFCLSDTWIGCDQKTSLKVEVLKRTRDVEGENAEEGLEEEDDEIEEEDYESEYSEDEEDKKRGSKKKVNKESSSEESGSDEE
# Target: CMV MP–4M8H (cucumber mosaic virus movement protein, 4Myc-8His-tagged) (cucumber mosaic virus)
# Assay: affinity purification with mass spectrometry; purified CMV MP–4M8H (2 µg) incubated 4 h at 4 °C with dialysed Arabidopsis PECP (500 µg) in 0.14 M NaCl, 8.0 mM sodium phosphate, 2.0 mM potassium phosphate, 10 mM KCl, pH 7.4; immobilised anti-c-Myc IgG; SDS-PAGE bands analysed by LC-MS/MS; only the target purified
binder,measurement,value
B1,binding,binds
